Source: patent US9012223B2, “Methods for enhancing genome stability and telomere elongation in embryonic stem cells” (The United States of America, as represented by the …, priority 2009, dated 2015)
For at least one compound, name, drawing or mass did not settle the structure.

System: ES cells
Assay: Cell proliferation assay at passage 7 (effect of doxycycline on control ES cells)
Assay type: cell-based, mouse
Conditions: presence or absence of Dox, tet-Empty, tet-Zscan4c and shRNA control cells

## C[C@H]1c2cccc(O)c2C(=O)C2=C(O)[C@]3(O)C(=O)C(C(N)=O)=C(O)[C@@H](N(C)C)[C@@H]3[C@@H](O)[C@@H]21 [Dox, doxycycline]
  proliferation rate of the cells: did not affect the proliferation rate
